Data taken from publication PMC5399287.
Results are given in words; binding and its absence hold for the method and conditions named. Some entries that bind do so weakly or less than the wild type.

Sequences of proteins named here, by UniProt entry; tags and fusion partners are left off. Residues count along the entry.
UniProt Q92743, residues 23-480: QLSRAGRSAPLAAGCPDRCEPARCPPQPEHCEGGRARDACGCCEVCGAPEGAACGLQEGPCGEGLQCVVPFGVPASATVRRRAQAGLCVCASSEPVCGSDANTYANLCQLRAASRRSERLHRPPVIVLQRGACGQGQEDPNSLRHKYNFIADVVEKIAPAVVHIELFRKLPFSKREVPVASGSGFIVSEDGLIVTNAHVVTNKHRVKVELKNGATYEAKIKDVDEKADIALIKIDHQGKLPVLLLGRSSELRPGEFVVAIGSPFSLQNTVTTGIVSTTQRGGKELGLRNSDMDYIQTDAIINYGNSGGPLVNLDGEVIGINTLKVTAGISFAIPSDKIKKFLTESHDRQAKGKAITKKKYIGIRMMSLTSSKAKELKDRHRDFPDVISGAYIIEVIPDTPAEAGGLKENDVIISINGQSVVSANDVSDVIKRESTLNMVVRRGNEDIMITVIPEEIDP

Molecular target: HTRA1 (high-temperature requirement A serine peptidase 1) (human (endogenous in MDA-MB-231)) (UniProt Q92743)
Test: native gel or EMSA; Blue NativePAGE 3-12% of concentrated serum-free culture medium of MDA-MB-231 cells, blot with anti-HTRA1; control or LOX-depleted cells, or cells treated with CCT365623 or BAPN

binding: binds
Substance: HTRA1 (high-temperature requirement A serine peptidase 1) (from UniProt Q92743 23-480) (enzyme)
